Data reported in PubChem BioAssay AID330 (DTP/NCI, 2004).
The list shows only some results of the screen, not a fair sample: it gathers tests that were run many times, whatever their T/C, doses with no T/C, and many T/C values between a quarter and a half above the control. Other doses and runs of a compound stand elsewhere. T/C is the treated group as % of the vehicle group. Some doses have a count of surviving animals in place of a T/C: the source files T/C as zero there, which appears to mark a toxic dose or a test without result, not a measured value. Some survivor counts are full or nearly so, which does not show that the dose was tolerated: the source hardly ever lists a survival T/C far under the control, and the zero likely stands for such cases as well. Counts of survivors are from the toxicity check (mostly the fifth day) where no day follows; animals may have died later. Schedules are NCI's codes, taken here to give the interval after Q, in days (D) or hours (H), and the number of doses after X. Some entries hold several experiments; their values stand side by side, smallest first. Where survival is the endpoint, the PubChem record calls one and a half times the control and up active, and a quarter to a half above the control has no call in these data; cut-offs in other NCI protocols can differ. Some T/C values are followed by the survivors on the day toxicity was checked, most often the fifth; without a count, all were alive then.

Tested on: P388 leukemia ip, CD2F1 mice, survival T/C
Test: NCI In Vivo Anticancer Drug Screen. Data for tumor model P388 Leukemia (intraperitoneal) in CD2F1 (CDF1) mice
Conditions: T/C endpoint: median survival time, higher T/C = longer survival
[1] = dose: 25.0 mg/kg/injection, schedule: Q01DX009 (ip), vehicle: saline
[2] = dose: 50.0 mg/kg/injection, schedule: Q01DX005 (ip), vehicle: Klucel (hydroxypropylcellulose) (HPC)
[3] = dose: 200.0 mg/kg/injection, schedule: Q01DX005 (ip), vehicle: Klucel (hydroxypropylcellulose) (HPC)
[4] = dose: 100.0 mg/kg/injection, schedule: Q01DX009 (ip), vehicle: saline with Tween-80
[5] = dose: 12.5 mg/kg/injection, schedule: Q01DX009 (ip), vehicle: saline
[6] = dose: 200.0 mg/kg/injection, schedule: Q01DX009 (ip), vehicle: saline with Tween-80

## OC(c1ccccc1)(c1ccccc1)c1ccc(C[P+](c2ccccc2)(c2ccccc2)c2ccccc2)cc1
dose: 6.25 mg/kg/injection, schedule: Q01DX009 (ip), vehicle: other
  survivor count: 3 of 6
dose: 12.5 mg/kg/injection, schedule: Q01DX009 (ip), vehicle: other
  survivor count: 0 of 6
dose: 25.0 mg/kg/injection, schedule: Q01DX009 (ip), vehicle: other
  survivor count: 0 of 6 and 2 of 6
dose: 50.0 mg/kg/injection, schedule: Q01DX009 (ip), vehicle: other
  survivor count: 0 of 6
dose: 100.0 mg/kg/injection, schedule: Q01DX009 (ip), vehicle: other
  survivor count: 0 of 6
dose: 200.0 mg/kg/injection, schedule: Q01DX009 (ip), vehicle: other
  survivor count: 0 of 6
dose: 400.0 mg/kg/injection, schedule: Q01DX009 (ip), vehicle: other
  survivor count: 0 of 6

## O=C1NC(c2ccccc2)N=C2Oc3ccccc3C=C12 (stereo not drawn)
dose: 6.25 mg/kg/injection, schedule: Q01DX009 (ip), vehicle: saline with Tween-80
  survivor count: 6 of 6
dose: 25.0 mg/kg/injection, schedule: Q01DX009 (ip), vehicle: saline with Tween-80
  T/C: 130 % of control
[1]
  T/C: 125 % of control

## CC1=CC(Cc2ccccc2)N(C)C(C#N)C1 (stereo not drawn)
dose: 100.0 mg/kg/injection, schedule: Q01DX005 (ip), vehicle: saline with Tween-80
  survivor count: 2 of 5
dose: 200.0 mg/kg/injection, schedule: Q01DX005 (ip), vehicle: saline with Tween-80
  survivor count: 0 of 5

## NC(=O)c1ncn(C2OC(CO)C(O)C2O)n1 (stereo not drawn)
dose: 160.0 mg/kg/injection, schedule: Q01DX009 (ip), vehicle: saline
  T/C: 129 and 132 % of control
dose: 320.0 mg/kg/injection, schedule: Q01DX009 (ip), vehicle: saline
  survivor count: 6 of 6

## S=C1NCCNC(=S)SS1
[2]
  survivor count: 3 of 5
[3]
  survivor count: 1 of 5

## CC(=O)N(C(C)=O)N1C(=O)C2C3C=CC(C4CC34)C2C1=O (stereo not drawn)
dose: 200.0 mg/kg/injection, schedule: Q01DX009 (ip), vehicle: Klucel (hydroxypropylcellulose) (HPC)
  survivor count: 2 of 6

## S=P([S][Sn]([S]P(=S)(c1ccccc1)c1ccccc1)([c]1ccccc1)[c]1ccccc1)(c1ccccc1)c1ccccc1
dose: 6.25 mg/kg/injection, schedule: Q01DX005 (ip), vehicle: Klucel (hydroxypropylcellulose) (HPC)
  T/C: 128 [5 of 6 alive] and 131 % of control
dose: 12.5 mg/kg/injection, schedule: Q01DX005 (ip), vehicle: Klucel (hydroxypropylcellulose) (HPC)
  T/C: 141 and 143 % of control
dose: 25.0 mg/kg/injection, schedule: Q01DX005 (ip), vehicle: Klucel (hydroxypropylcellulose) (HPC)
  survivor count: 3 of 6
[2]
  survivor count: 1 of 6
dose: 100.0 mg/kg/injection, schedule: Q01DX005 (ip), vehicle: Klucel (hydroxypropylcellulose) (HPC)
  survivor count: 1 of 6
[3]
  survivor count: 0 of 6

## NC(=S)N=Nc1c(O)n(CCCO)c2ccccc12
dose: 240.0 mg/kg/injection, schedule: Q01DX005 (ip), vehicle: Klucel (hydroxypropylcellulose) (HPC)
  survivor count: 1 of 6

## Cc1ccc(NS(=O)(=O)c2ccccc2)nc1
[4]
  survivor count: 6 of 6

## O=[N+]([O-])c1cc2[nH]cnc2c([N+](=O)[O-])c1N1CCCCC1
dose: 100.0 mg/kg/injection, schedule: Q04DX003 (ip), vehicle: saline with Tween-80
  survivor count: 3 of 6
dose: 200.0 mg/kg/injection, schedule: Q04DX003 (ip), vehicle: saline with Tween-80
  survivor count: 1 of 6
dose: 400.0 mg/kg/injection, schedule: Q04DX003 (ip), vehicle: saline with Tween-80
  survivor count: 5 of 6

## O=C(O)C(Cc1cccc(F)c1)NC(=O)C(F)(F)F (stereo not drawn)
[5]
  survivor count: 1 of 6
[1]
  survivor count: 0 of 6
dose: 50.0 mg/kg/injection, schedule: Q01DX009 (ip), vehicle: saline with Tween-80
  survivor count: 0 of 6
[4]
  survivor count: 0 of 6
[6]
  survivor count: 0 of 6

## CCN(CC)CCOc1ccc2c(c1)C(=O)c1cc(OCCN(CC)CC)ccc1-2
[5]
  survivor count: 6 of 6
[4]
  survivor count: 3 of 6
[6]
  survivor count: 0 of 6

## [Cl][Cu][Cl].[NH-]C1CCCC2CCC[N-]C12 (stereo not drawn)
dose: 25.0 mg/kg/injection, schedule: Q04DX002 (ip), vehicle: saline with Tween-80
  survivor count: 0 of 6
dose: 50.0 mg/kg/injection, schedule: Q04DX002 (ip), vehicle: saline with Tween-80
  survivor count: 1 of 6
